The list does not hold the whole screen: it gathers tests that were run many times, whatever their T/C, doses with no T/C, and many T/C values between a quarter and a half above the control. Further doses and runs are listed elsewhere. T/C: endpoint of the treated group in % of that of the vehicle group. Some doses have a count of surviving animals in place of a T/C: the source holds a T/C of zero for them, seemingly a mark for toxic or unscored doses. Some survivor counts are full or nearly so, which does not show that the dose was tolerated: survival well below the control is almost never listed, so the zero probably covers shortened survival too. Survivors were counted at the toxicity check, usually on the fifth day, unless a day is given; later deaths do not show. Schedule codes are those of the source, taken here to give the interval after Q, in days (D) or hours (H), and the number of doses after X. Some entries were tested several times; the values are given in rising order. For survival time, the PubChem record calls one and a half times the control and up active, and a quarter to a half above the control has no call in these data; cut-offs in other NCI protocols can differ. Some T/C values carry the count of animals alive at the toxicity check (mostly the fifth day); where none is given, no animal had died by that day.
System: Lewis lung carcinoma i.m., BDF1 mice, T/C %
Test: NCI In Vivo Anticancer Drug Screen. Data for tumor model Lewis Lung Carcinoma (intramuscular) in B6D2F1 (BDF1) mice
Details: T/C endpoint: median survival time, higher T/C = longer survival
Outline: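 Transplantable tumour model; readout survival or tumour size; value = treated (T) / vehicle control (C).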

In the case of `CC1CCC(NC(=O)N(CCCl)N=O)CC1` (stereo unspecified), the T/C (dose: 2.0 mg/kg/injection, schedule: Q01DX009 (ip), vehicle: saline + alcohol) is reported as 129 % of control, the survivor count (dose: 4.0 mg/kg/injection, schedule: Q01DX015 (ip), vehicle: saline) is reported as 7 of 8 and the survivor count (dose: 6.25 mg/kg/injection, schedule: Q01DX017 (ip), vehicle: saline) is reported as 9 of 10. The T/C (dose: 6.25 mg/kg/injection, schedule: Q06HX012 (ip), vehicle: saline) was 127 % of control, the T/C (dose: 8.0 mg/kg/injection, schedule: Q01DX009 (ip), vehicle: saline + alcohol) was 131 % of control and the T/C (dose: 9.8 mg/kg/injection, schedule: Q01DX015 (ip), vehicle: saline) was 139 % of control. The survivor count (dose: 10.0 mg/kg/injection, schedule: Q01DX015 (ip), vehicle: saline) was 8 of 8, the survivor count (dose: 12.5 mg/kg/injection, schedule: Q01DX017 (ip), vehicle: saline) was 3 of 10 and the survivor count (dose: 16.0 mg/kg/injection, schedule: Q01DX009 (ip), vehicle: saline + alcohol) was 10 of 10. For the same compound, the survivor count (dose: 16.0 mg/kg/injection, schedule: Q01DX011 (ip), vehicle: saline with Tween-80) was 0 of 10 and 7 of 10, the survivor count (dose: 20.0 mg/kg/injection, schedule: Q01DX015 (ip), vehicle: saline) was 8 of 8 and the T/C (dose: 24.0 mg/kg/injection, schedule: Q14DX002 (ip), vehicle: saline) was 134 % of control. The survivor count (dose: 25.0 mg/kg/injection, schedule: Q01DX017 (ip), vehicle: saline) was 0 of 10, the survivor count (dose: 25.0 mg/kg/injection, schedule: Q06HX004 (ip), vehicle: saline) was 0 of 10 and the survivor count (dose: 25.0 mg/kg/injection, schedule: Q06HX012 (ip), vehicle: saline) was 5 of 10. The survivor count (dose: 32.0 mg/kg/injection, schedule: Q01DX011 (ip), vehicle: saline with Tween-80) was 0 of 10 and 2 of 10, the T/C (dose: 39.0 mg/kg/injection, schedule: Q01DX001 (sc), vehicle: Klucel (hydroxypropylcellulose) (HPC)) was 141 % of control [7 of 8 alive] and the survivor count (dose: 50.0 mg/kg/injection, schedule: Q06HX004 (ip), vehicle: saline) was 0 of 10. For the same compound, the survivor count (dose: 50.0 mg/kg/injection, schedule: Q08DX003 (ip), vehicle: saline) was 8 of 10, the survivor count (dose: 56.0 mg/kg/injection, schedule: Q01DX001 (ip), vehicle: saline) was 5 of 8 and the survivor count (dose: 56.0 mg/kg/injection, schedule: Q14DX002 (ip), vehicle: saline) was 5 of 8. For the same compound, the survivor count (dose: 60.0 mg/kg/injection, schedule: Q07DX003 (ip), vehicle: saline) was 8 of 8, the survivor count (dose: 64.0 mg/kg/injection, schedule: Q01DX011 (ip), vehicle: saline with Tween-80) was 0 of 10 and the survivor count (dose: 65.0 mg/kg/injection, schedule: Q07DX003 (ip), vehicle: saline) was 3 of 8. The survivor count (dose: 70.0 mg/kg/injection, schedule: Q01DX001 (ip), vehicle: saline) was 0 of 8, the survivor count (dose: 70.0 mg/kg/injection, schedule: Q07DX003 (ip), vehicle: saline) was 1 of 8 and the survivor count (dose: 70.0 mg/kg/injection, schedule: Q14DX002 (ip), vehicle: saline) was 1 of 8. For the same compound, the survivor count (dose: 100.0 mg/kg/injection, schedule: Q01DX001 (ip), vehicle: saline) was 3 of 10, the survivor count (dose: 100.0 mg/kg/injection, schedule: Q08DX003 (ip), vehicle: saline) was 0 of 10 and the survivor count (dose: 128.0 mg/kg/injection, schedule: Q01DX011 (ip), vehicle: saline with Tween-80) was 0 of 10. For the same compound, the survivor count (dose: 256.0 mg/kg/injection, schedule: Q01DX011 (ip), vehicle: saline with Tween-80) was 0 of 10.

Reference: PubChem BioAssay AID272 (DTP/NCI, 2004)
